Results on one substance are retold here after paper PMC12192612.

The chains behind the UniProt entries cited, without tags or fusion partners. Where a name states a change or a piece, a line headed by the entry shows the natural chain unless it says otherwise. A line that says so, or that is headed by a name, gives the form on record, which may keep a tag or linker. Residues count along the entry.
UniProt Q9H8M5, residues 429-584: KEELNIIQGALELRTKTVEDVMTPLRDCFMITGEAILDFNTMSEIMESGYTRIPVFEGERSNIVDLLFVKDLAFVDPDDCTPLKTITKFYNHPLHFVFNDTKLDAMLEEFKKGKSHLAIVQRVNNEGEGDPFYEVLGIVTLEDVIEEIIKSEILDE
cysteine-phosphorylated PRL3 D72A (residues 1-169) (O75365, form named): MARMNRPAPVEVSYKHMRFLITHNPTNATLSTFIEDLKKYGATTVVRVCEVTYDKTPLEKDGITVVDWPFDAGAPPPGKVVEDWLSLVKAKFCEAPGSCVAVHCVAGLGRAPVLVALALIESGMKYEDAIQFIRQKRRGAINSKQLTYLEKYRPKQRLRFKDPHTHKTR

In this assay the target is CBS-pair domain of CNNM2 (residues 429-584) (human) (UniProt Q9H8M5). As to the kind of experiment: condition: syringe typically 160 μM ligand, cell 16 μM protein; ITC; MicroCal VP-ITC, 20 °C, 29 injections of 10 μl; syringe typically 160 μM ligand, cell 16 μM protein (which protein was in the syringe is not told); PRL phosphorylated with 4'-MUP and desalted; single set of identical sites model; both purified.

Results are given in words; binding and its absence hold for the method and conditions named.

With “cysteine-phosphorylated PRL3 D72A (residues 1-169) (from UniProt O75365 1-169) (enzyme)”, the binding result was “no binding”.
